Experiment [1] has as its target GFP‐Eps8‐wild type (WT) (mouse (primer names: mEps8)) (UniProt Q08509). Put plainly: condition: only cells treated with 50 μM CK-666 for 1 h; affinity purification with mass spectrometry; as a2, the sample of cells treated with 50 μM CK-666 for 1 h, compared directly with the nontreated (DMSO) sample.
The target is the same in experiment [2]. Put plainly: affinity purification with mass spectrometry; whole-cell GFP-trap pull-down of GFP-Eps8-WT bait from transfected CAD cells treated with DMSO or 50 μM CK-666 for 1 h; on-bead digestion, LC-MS/MS; hits against cytosolic GFP-expressing cells; three preparations.
A further experiment addresses IRSp53‐EGFP (UniProt Q9UQB8). Description: affinity purification with mass spectrometry; whole-cell GFP-trap pull-down of IRSp53-EGFP bait from transfected CAD cells treated with DMSO or 50 μM CK-666 for 1 h; on-bead digestion, LC-MS/MS; hits against cytosolic GFP-expressing cells; five preparations.

Sequences of proteins named here, by UniProt entry; tags and fusion partners are left off.
UniProt Q08509: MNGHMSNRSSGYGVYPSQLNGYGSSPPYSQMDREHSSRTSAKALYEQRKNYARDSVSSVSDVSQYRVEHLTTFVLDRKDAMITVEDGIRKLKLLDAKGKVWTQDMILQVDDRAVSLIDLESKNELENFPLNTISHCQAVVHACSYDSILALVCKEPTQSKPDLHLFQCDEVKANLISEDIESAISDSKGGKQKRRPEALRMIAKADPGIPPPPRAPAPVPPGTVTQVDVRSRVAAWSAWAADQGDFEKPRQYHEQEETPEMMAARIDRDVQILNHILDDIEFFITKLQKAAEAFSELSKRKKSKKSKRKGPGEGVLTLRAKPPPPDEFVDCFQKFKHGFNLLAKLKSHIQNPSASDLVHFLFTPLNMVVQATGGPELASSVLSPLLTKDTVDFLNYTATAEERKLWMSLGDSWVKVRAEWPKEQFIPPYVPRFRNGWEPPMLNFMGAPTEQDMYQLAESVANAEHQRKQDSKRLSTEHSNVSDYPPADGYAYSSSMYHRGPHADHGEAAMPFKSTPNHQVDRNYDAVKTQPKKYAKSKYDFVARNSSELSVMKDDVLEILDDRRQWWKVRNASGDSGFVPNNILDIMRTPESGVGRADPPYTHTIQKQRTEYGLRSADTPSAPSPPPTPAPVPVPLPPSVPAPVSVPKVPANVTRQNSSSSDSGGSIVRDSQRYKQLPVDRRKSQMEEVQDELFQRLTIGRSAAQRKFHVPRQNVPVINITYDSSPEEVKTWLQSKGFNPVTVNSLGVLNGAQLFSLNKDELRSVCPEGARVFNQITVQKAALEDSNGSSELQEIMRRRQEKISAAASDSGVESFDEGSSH
UniProt Q9UQB8: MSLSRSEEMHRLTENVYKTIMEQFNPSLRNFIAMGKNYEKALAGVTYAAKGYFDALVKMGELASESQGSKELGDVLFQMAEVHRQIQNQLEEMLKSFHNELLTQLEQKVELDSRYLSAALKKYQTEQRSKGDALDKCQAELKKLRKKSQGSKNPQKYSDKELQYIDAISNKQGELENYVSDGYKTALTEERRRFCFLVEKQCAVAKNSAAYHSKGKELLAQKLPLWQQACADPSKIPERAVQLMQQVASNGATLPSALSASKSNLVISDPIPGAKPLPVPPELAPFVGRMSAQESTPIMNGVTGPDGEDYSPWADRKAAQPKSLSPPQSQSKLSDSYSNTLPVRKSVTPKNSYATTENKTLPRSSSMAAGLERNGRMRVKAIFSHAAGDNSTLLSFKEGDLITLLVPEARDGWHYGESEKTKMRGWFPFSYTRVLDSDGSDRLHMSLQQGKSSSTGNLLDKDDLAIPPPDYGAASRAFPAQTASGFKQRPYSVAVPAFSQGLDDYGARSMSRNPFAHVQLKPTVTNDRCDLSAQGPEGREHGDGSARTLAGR

No constants are given. Whether binding was seen depends on the method and setting. Binding seen in cells or lysates may run through a third protein. These calls come from enrichment with a bait or labelling near it, and not all partners need be listed. For some of these results: A no says only that the protein was not detected with the bait.

B1: Slingshot homology 1 (Ssh1) (protein, UniProt Q76I79 1-1042)
chain: MALVTLQRSPTPSAASSSASNSELEAGSDEERKLNLSLSESFFMVKGAALFLQQGNSPQGQRSLQHPHKHAGDLPQHLQVMINLLRCEDRIKLAVRLESVWTDRVRYMVVVYTSGRQDTEENILLGVDFSSKESKSCTIGMVLRLWSDTKIHLDGDGGFSVSTAGRMHIFKPVSVQAMWSALQVLHKACEVARRHNYFPGGVALIWATYYESCISSEQSCINEWNAMQDLESTRPDSPALFVDKPTEGERTERLIKAKLRSIMMSQDLENVTSKEIRNELEKQMNCNLKEFKEFIDNEMLLILGQMDKPSLIFDHLYLGSEWNASNLEELQGSGVDYILNVTREIDNFFPGLFAYHNIRVYDEETTDLLAHWNEAYHFINKAKRNHSKCLVHCKMGVSRSASTVIAYAMKEFGWPLEKAYNYVKQKRSITRPNAGFMRQLSEYEGILDASKQRHNKLWRQQPTDDTIAEPSEFLPETLDGALDAQLPCLDDTTHPGLPRSLAPGGPALPCCFRRLSDPLLLPHHDETGGLVHLEDLEKDALLEEEESQPVEVHKLVQHPQEGARLCEKDVKRKLEFGNSKPRSDSLPQVEELEKDGSPRTGRWRRASTQLDRSLLDQENLNNNNSKRSCPDDLERDAMFGILSKVKPPYTSCADCMYPTAGGTPEAYMERHEDPSSSAICTQPTFLPHVTSSPMAHASSRSRAPERPASGPANTSPFLLPAGSRKPDVSGSGAGAAPEPPASLLEPSRETSKALPKSLQLKNPHCDKNAANMEVSAKEEPSPKKDPKPAKDLRLLFSNEAEKPTTNSYLMQHQESIIQLQKAGLVRKHTKELERLKSLPSDSPAACRDSATCRLEASIPEEGSQEPAHPALCSQAGSEEQPVGGTLQKSPTSTLPRLDHTSNFSKDFLKTVCYTPTSSSISSNLTRSSSSDSIHSVRGKPGLVKQRAQEIETRLRLAGLTVSSPLKRSHSLAKLGSLNFSTEDLSSEADTSTIADSQDAKCGLSSSFLPEPQSAPRDPAATSKSSGKSAPEHLKSPSRVNKS
With B1, the binding entry in experiment [1] is listed as “no binding”; in experiment [2] it was “binds”.

B2: delphilin (Grid2ip) (protein, UniProt Q0QWG9 1-1203)
chain: MPATNQGWPEDFGFQLGGSGPCFVIEVAEGSSAHAGGLRPGDQILEVEGLAVGGLSRERIVRLARRCPRVPPSLGVLPGPEGGPTALTAAWLTRRFGRSLPLSRELLRLAGGPRPDAVHRERRRKAQEFSCQVDDILGDRLTAKEQVFTALKQFAAEQRVDELVWTLTLVLPSEAQGPVLDNLRIFIPKKHRARFDEVVSQGLLGKLCRARRAQGAQRLRRSRSEERPERLLVSTRASAAPRRPDEPPPRKATSLLGGRTGPGGPRRTVRVYKGNKSFGFTLRGHGPVWIESVLPGSPAENASLKSGDRILFLNGLDMRNCSHDKVVSMLQGSGAMPTLVVEEGPVPFASDSDSLDSPTRASALTSLQWVADILPSSIRVQGRTFSQQLDHLLTPPERYGVCRALERFFQHRNIDTLIVDVYPVLDTPAKQVLWQFLYQLLTYEEQELCQEKIACFLGYTAMTEPESSLDLEPESTPEPTPEPQPRSSLRASSMCRRSLRSQGLETSLSCGPGDCPEMPLPLIPGERQAGDGTSLPETPNPKMMSAVYAELESRLNSSFKGKIGTMSKSRASPPVPSLVGTSGPRTLSGVSWPSDRLLPSPCYDPLCSGGLASPSSSESHPYASLDSSRAPSPQPGLGSIHADSPPSPDPIRPPSRRKLFAFSRPVRSRDTDRFLDALSEQLGPRLSIVDDFLTPENDYEEMSFHDDQGSFVTNERSSASECVSSSEEGSSLTYSSISDHIPPPPLSPPPPPPLPFHDPKPSSRTSDGPRGPPQSLTKPLTQINHPVPPPPPPPLPPPVPCAPPMLSRGVGHRRSETSHMSVKRLRWEQVENSEGTIWGQLGEDSDYDKLSDMVKYLDLELHFGTQKPPKPVPGPEPFRKKEVVEILSHKKAYNTSILLAHLKLTPGELRQVLMSMEPRRLEPAHLAQLLLFAPDADEEQRYQAFREAPGRLSEPDQFVLQMLSVPEYKTRLRSLHFQATLQEKTEEIRGSLECLRQASLELKNSRKLAKILEFVLAMGNYLNDGQPKTNKTTGFKINFLTELNSTKTVDGKSTFLHILAKSLSQHFPELLGFAQDLPTVPLAAKVNQRALTGDLADLHDTVSEIQVACQSMAPSSEDRFAVVMASFLETAQPALRALDGLQREAMEELGKALAFFGEDSKATTSEAFFGIFSEFMSKFERALSDLQAGDGPRSSGMVSPLAW
As to B2, the binding result in the experiment with IRSp53‐EGFP is listed as “binds”.

B3: tropomodulin 3 (Tmod3) (protein, UniProt Q9JHJ0 1-352)
chain: MALPFRKDLGDYKDLDEDELLGKLSESELKQLETVLDDLDPENALLPAGFRQKNQTSKSATGPFDRERLLSYLEKQALEHKDRDDYVPYTGEKKGKIFIPKQKPAQTLTEETISLDPELEEALTSASDTELCDLAAILGMHNLIADTPFCDVLGSSNGVNQERFPNVVKGEKILPVFDEPPNPTNVEESLKRIRENDARLVEVNLNNIKNIPIPTLKDFAKTLEANTHVKHFSLAATRSNDPVAVAFADMLKVNKTLKSLNMESNFITGAGVLALIDALRDNETLMELKIDNQRQQLGTSVELEMAKMLEENTNILKFGYQFTQQGPRTRAANAITKNNDLVRKRRIEGDHQ
Take B3: the binding result (in experiment [2]; with IRSp53‐EGFP) was “binds” throughout.

B4: Wasf1 (protein, UniProt Q8R5H6 1-559)
chain: MPLVKRNIDPRHLCHTALPRGIKNELECVTNISLANIIRQLSSLSKYAEDIFGELFNEAHSFSFRVNSLQERVDRLSVSVTQLDPKEEELSLQDITMRKAFRSSTIQDQQLFDRKTLPIPLQETYDVCEQPPPLNILTPYRDDGKEGLKFYTNPSYFFDLWKEKMLQDTEDKRKEKRKQKQKNLDRPHEPEKVPRAPHDRRREWQKLAQGPELAEDDADLLHKHIEVANGPASHYETRPQTYVDHMDGSYSLSALPFSQMSELLTRAEERVLVRPHEPPPPPPMHGAGDAKPTPTCISSATGLIENRPQSPAAGRTPVFVSPTPPPPPPPLPSALSTSSLRASMTSTPPPPVPPPPPPPATALQAPAVPPPPAPLQIAPGVLHPAPPPIAPPLVQPSPPVARAAPVCETVPVHPLPQGEVQGLPPPPPPPPLPPPGIRPSSPVAVAALAHPPSGLHPAPSTAPGPHAPLMPPSPPSQVLPASEPKRHPSTLPVISDARSVLLEAIRKGIQLRKVEEQREQEAKHERIENDVATILSRRIAVEYSDSEDDSEFDEVDWLE
Take B4: the binding result in experiment [2] is on record as “binds”.

B5: Drebrin (Dbn1) (protein, UniProt Q9QXS6 1-706)
chain: MAGVSFSGHRLELLAAYEEVIREESAADWALYTYEDGSDDLKLAASGEGGLQELSGHFENQKVMYGFCSVKDSQAALPKYVLINWVGEDVPDARKCACASHVAKVAEFFQGVDVIVNASSVEDIDAGAIGQRLSNGLARLSSPVLHRLRLREDENAEPVGTTYQKTDAAVEMKRINREQFWEQAKKEEELRKEEERKKALDARLRFEQERMEQERQEQEERERRYREREQQIEEHRRKQQSLEAEEAKRRLKEQSIFGDQRDEEEESQMKKSESEVEEAAAIIAQRPDNPREFFRQQERVASASGGSCDAPAPAPFNHRPGRPYCPFIKASDSGPSSSSSSSSSPPRTPFPYITCHRTPNLSSSLPCSHLDSHRRMAPTPIPTRSPSDSSTASTPIAEQIERALDEVTSSQPPPPPPPPPPTQEAQETTPSLDEELSKEAKVTAAPEVWAGCAAEPPQAQEPPLLQSSPLEDSMCTESPEQAALAAPAEPAASVTSVADVHAADTIETTTATTDTTIANNVTPAAASLIDLWPGNGEEASTLQAEPRVPTPPSGAEASLAEVPLLNEAAQEPLPPVGEGCANLLNFDELPEPPATFCDPEEEVGETLAASQVLTMPSALEEVDQVLEQELEPEPHLLTNGETTQKEGTQASEGYFSQSQEEEFAQSEEPCAKVPPPVFYNKPPEIDITCWDADPVPEEEEGFEGGD
As to B5, the binding result in the experiment with IRSp53‐EGFP is given as “binds”.

(Values after paper PMC10711657.)
